Reference: publication PMC7819943, “Rice protein-binding microarrays: a tool to detect cis-acting elements near promoter regions in rice”
This is one part of the list.

The chains behind the UniProt entries cited, without tags or fusion partners.
UniProt Q0JBA9, entry or part of it: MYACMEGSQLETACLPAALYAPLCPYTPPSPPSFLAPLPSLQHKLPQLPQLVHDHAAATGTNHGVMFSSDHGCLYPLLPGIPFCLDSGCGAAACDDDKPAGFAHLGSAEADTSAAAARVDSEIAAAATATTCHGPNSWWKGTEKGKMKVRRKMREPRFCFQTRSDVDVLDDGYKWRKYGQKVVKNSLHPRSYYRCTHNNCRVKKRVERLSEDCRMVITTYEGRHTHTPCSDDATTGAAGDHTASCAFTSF

target: OsWRKY34 (Oryza sativa, UniProt Q0JBA9 1-250); assay: protein-binding microarray (RPBM); PBS, 2% BSA, 51.3 ng/ul salmon testes DNA, 50 uM zinc acetate, 200 nM TF, 25 C, 1 h; high values mean tight binding; conditions: protein: recombinant; tags: N-terminal polyhistidine and DsRed monomer fusion (pET32a); label: CyDye5-dUTP incorporated in the synthesized complementary strand; 3' TTTTT single-stranded linker to array surface; dsDNA, one strand shown
Summary of the method: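 Polyhistidine-tagged DsRed fusions of transcription factors, joined at the N-terminus, were expressed in E. coli BL21-CodonPlus and isolated on Ni–NTA. They were incubated at 200 nM for 1 h at 25 °C on a custom Agilent array, double-stranded and BSA-blocked, in PBS with 2% BSA, salmon testes DNA and 50 µM zinc acetate. The binding signal is per-feature fluorescence intensity (arbitrary units) read on an Axon 4000B scanner after washing.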

Sequence	binding signal
ATACCCTCACGTATACGGTTGGTTCCCTTATACGCCGTTACGGAGTCACCTAGTGCAG	8870 fluorescence intensity (a.u.)
ACTAGTTCATAATGTCGGGACACTAATGTTGTATTCGGTTCGGAGTCACCTAGTGCAG	8230 fluorescence intensity (a.u.)
GACGCCACCGCCGCCCCACCGCCACCGCCATCGATTCTTGCGGAGTCACCTAGTGCAG	8830 fluorescence intensity (a.u.)
ATCATCCAACCAACAGCTGAAGCCTAAACACACAACCGAACGGAGTCACCTAGTGCAG	8600 fluorescence intensity (a.u.)
TTTTCACGTTGCAATATATTCTTTCCGTCCAACAATATAACGGAGTCACCTAGTGCAG	9320 fluorescence intensity (a.u.)
CTCTTTTTTTTTCGATTTGTTTGTGTGCATTTCGGCATTTCGGAGTCACCTAGTGCAG	8640 fluorescence intensity (a.u.)
CGCTTTCTATTCGGGCTTTGGCCTGCTAGTTTTATGGGCCCGGAGTCACCTAGTGCAG	10800 fluorescence intensity (a.u.)
AGCTCATGACCAGCGCGCACCGCCTTGTCAGCCTGTGTTTCGGAGTCACCTAGTGCAG	10100 fluorescence intensity (a.u.)
ATTTTTGGTTCAAGTTTTTTGCAGGGACTAGTTTCGAAATCGGAGTCACCTAGTGCAG	8040 fluorescence intensity (a.u.)
GTGGGTGGTTCTTGCTAGCACGCGCGGCGCGAGCGCCAAGCGGAGTCACCTAGTGCAG	9300 fluorescence intensity (a.u.)
TTTCTTTGTTGTCTCACTTTCCCTTTTTCCACTTCTTTTTCGGAGTCACCTAGTGCAG	11700 fluorescence intensity (a.u.)
GACCCTGACACTTCACTCTTGTGTTGACCAAACGGCTGATCGGAGTCACCTAGTGCAG	10500 fluorescence intensity (a.u.)
ATCTCGCACACCATTCCCATGCTCGAGCGAGTTCATCACACGGAGTCACCTAGTGCAG	10100 fluorescence intensity (a.u.)
CAGCACCAACACGAGCCCAACTCGACGCCTCTCTTCTCTTCGGAGTCACCTAGTGCAG	9620 fluorescence intensity (a.u.)
CCTTGTGTGGAATAGTAATGCTCGGTTGACTACGCCAGTCCGGAGTCACCTAGTGCAG	8940 fluorescence intensity (a.u.)
TTGAAAACCTGGCTACGCCACTGCGGTGAACATCTACCATCGGAGTCACCTAGTGCAG	8070 fluorescence intensity (a.u.)
CAACTGCTCTTCCTACGCGCGGTCATCGTCTGCTTCTTGTCGGAGTCACCTAGTGCAG	10000 fluorescence intensity (a.u.)
CTGTCACTTATCCTTGGCTTTCCTTGTGCGCCTGAGTATCCGGAGTCACCTAGTGCAG	8960 fluorescence intensity (a.u.)
GGATTTTCTCGCGCATACCATATCACACTACCACCCTTCTCGGAGTCACCTAGTGCAG	11400 fluorescence intensity (a.u.)
TCTGCCACTTTCCGCATGCTGTATCCACGTCACCTCCAATCGGAGTCACCTAGTGCAG	10600 fluorescence intensity (a.u.)
TTTCAACCTTTGTACTTCCTTTCCTGTAGGTATCTCCATGCGGAGTCACCTAGTGCAG	8060 fluorescence intensity (a.u.)

Sequence	binding signal
TATCTATAGCTCTCTGATCCATTGCCTCGTTTTTCTCTATCGGAGTCACCTAGTGCAG	12100 fluorescence intensity (a.u.)
CCCGCAGGCGGCGTCCACCACCACCACCACCTCGATCCGCCGGAGTCACCTAGTGCAG	8030 fluorescence intensity (a.u.)
GCTCTTGATCATCACGCCATCTCCTCCGGCCGAACTCACACGGAGTCACCTAGTGCAG	11000 fluorescence intensity (a.u.)
TGGGGTTGGTTTGGTTTGGAGTACATCGAGATTCGAGAGACGGAGTCACCTAGTGCAG	19900 fluorescence intensity (a.u.)
TTGCTCAATGCTTGTTCATTGTTTATGCCATTGTCTTCTCCGGAGTCACCTAGTGCAG	11300 fluorescence intensity (a.u.)
TGATCAAACTTAAAACAGTTTGACTTTGACTAAAGTCAAACGGAGTCACCTAGTGCAG	8260 fluorescence intensity (a.u.)
GGGTCGTCGTCATCGCCGTCTTCACTCTTCACGCCACACTCGGAGTCACCTAGTGCAG	10400 fluorescence intensity (a.u.)
TTGAGCCGGTTACTTCTTTCTCGTTTGCCTGTTGATACAACGGAGTCACCTAGTGCAG	9990 fluorescence intensity (a.u.)
CCTCTTCTTCTGCTCTGCTCTACTCGCGAAGCCAAAGCCTCGGAGTCACCTAGTGCAG	9400 fluorescence intensity (a.u.)
ACATCAAACGTCGATAGTATTCTGTTGTATTCTTGGTGGGCGGAGTCACCTAGTGCAG	8310 fluorescence intensity (a.u.)
CGGCAGTGTTCTTTTTTTTTTACACGCGTTTTTTTTTACACGGAGTCACCTAGTGCAG	10800 fluorescence intensity (a.u.)
AGTGTTAGTTTGTGATGTAATCTAGTCTAGGCCTGTGTATCGGAGTCACCTAGTGCAG	11500 fluorescence intensity (a.u.)
GCAACGGTTTGGCCCATCACTGATTTTTCTATGGGCCACACGGAGTCACCTAGTGCAG	9140 fluorescence intensity (a.u.)
CCTCTCCCCGCCGCCTCCACCTCCTCCGCCGCCACTGTGTCGGAGTCACCTAGTGCAG	8320 fluorescence intensity (a.u.)
AACCAGGCCATACTTGCATCCTTTGTCTGCTGGGCTGCCTCGGAGTCACCTAGTGCAG	8410 fluorescence intensity (a.u.)
ATGCCTTCTTACTCCCTTTTTGCTTTCAGCATTGGATACCCGGAGTCACCTAGTGCAG	8550 fluorescence intensity (a.u.)
GCTACTGGTGCCGGCCGCCGTCCTCCTGCTTCCGCCGCCGCGGAGTCACCTAGTGCAG	9560 fluorescence intensity (a.u.)
CCGTGCTCTGCTGCCGCCCTGGGACTCCTCTCACCTACTACGGAGTCACCTAGTGCAG	8050 fluorescence intensity (a.u.)
GGCATCAAGTTTTCTCTTATTTAAGTTGGCAATCGCTTATCGGAGTCACCTAGTGCAG	9560 fluorescence intensity (a.u.)
GTGTGGATGTGTATAGATTTTGTTTTACACGCTCGGCGTACGGAGTCACCTAGTGCAG	9070 fluorescence intensity (a.u.)
AGCATATTCCAAGCCACGACTTACGCCTTGTGGCTTTCGCCGGAGTCACCTAGTGCAG	8810 fluorescence intensity (a.u.)

Sequence	binding signal
CTATCACTTGGAAGTACTACTTATCAACATCAAACATTTCCGGAGTCACCTAGTGCAG	8300 fluorescence intensity (a.u.)
TGTGTGCGAAAGCTAGTTTTTTCAGTTGCATTTTTTTAACCGGAGTCACCTAGTGCAG	8840 fluorescence intensity (a.u.)
GTTCTCTCCAACTTGACTCAACATTAGTACACAATAGTATCGGAGTCACCTAGTGCAG	8960 fluorescence intensity (a.u.)
TTTTTTTCCTCCCTATTCGCTGTGTCATGCCTTATATATTCGGAGTCACCTAGTGCAG	8240 fluorescence intensity (a.u.)
TCCCTAAATATTTGACGCCGTTGACTTTTTTAAACATGTTCGGAGTCACCTAGTGCAG	26400 fluorescence intensity (a.u.)
ATTGCCCAACCTCTGCTTCTGTTGGCCCAAGAAGAATCCCCGGAGTCACCTAGTGCAG	8110 fluorescence intensity (a.u.)
GGCCAATAAGTTCCAGTTCTCTTCTTAAGGCCCATTAGACCGGAGTCACCTAGTGCAG	61800 fluorescence intensity (a.u.)
CATCAGTCACACGACCTTCAAGGCCATAGCCTGCCTGTCTCGGAGTCACCTAGTGCAG	8040 fluorescence intensity (a.u.)
TCAATTTCCAACAACGGCACTCCTCCGCCCTATTCGATCCCGGAGTCACCTAGTGCAG	10100 fluorescence intensity (a.u.)
CCTTGGGTTCGACGCCCTTGACAACCTGGTATCACGTTCCCGGAGTCACCTAGTGCAG	8550 fluorescence intensity (a.u.)
TCTCTTCATCGTCGTCAGCGGCCTTGTATATTAGTGGTCACGGAGTCACCTAGTGCAG	9350 fluorescence intensity (a.u.)
TCAACTGCACCAGCATCCCAACTGTGGTTTGTAAGATTCTCGGAGTCACCTAGTGCAG	8910 fluorescence intensity (a.u.)
GTTGCAGGGTGGGGATTGTTAAATTTATTGTTTGGCTGGACGGAGTCACCTAGTGCAG	16600 fluorescence intensity (a.u.)
GCTGCTGATGCGAGGTCAAAATTCTCGTCTACCTGATTCTCGGAGTCACCTAGTGCAG	8900 fluorescence intensity (a.u.)
ATTTACGTTTGGAACTGTATATTACTTGTCGTTTTGTGTACGGAGTCACCTAGTGCAG	8200 fluorescence intensity (a.u.)
TAATTCTCGCGTTTCATTATTTTCTTTCTTTTTTAGTCTACGGAGTCACCTAGTGCAG	12000 fluorescence intensity (a.u.)
CTAGACTTTGCTTTCGCTGCGCTCTCTCTCTCTCTCACCGCGGAGTCACCTAGTGCAG	8520 fluorescence intensity (a.u.)
GGCCCATCACACGCGGCGCCTCTCTCTCCCTCTCCCCAAACGGAGTCACCTAGTGCAG	8410 fluorescence intensity (a.u.)
GGTTGATTTATGGGCCTTTTGTTTCTTCTCGGCGGCGCGTCGGAGTCACCTAGTGCAG	10100 fluorescence intensity (a.u.)
AATAGTGGATTAAGGGTGTGTTTAGTTGGGGAAAAGGAAACGGAGTCACCTAGTGCAG	9360 fluorescence intensity (a.u.)
CAATATGGCCATTGCCCGTTCTTTTTATTGTTCGGCTTCACGGAGTCACCTAGTGCAG	11300 fluorescence intensity (a.u.)

Sequence	binding signal
ACATTATCATGTCACGTCGTCGCGTAATCATGGGTACCCACGGAGTCACCTAGTGCAG	10400 fluorescence intensity (a.u.)
GTCCCACTATATATACTCGAAGCCGTCACCTACCTTCCCACGGAGTCACCTAGTGCAG	8190 fluorescence intensity (a.u.)
GGTTTATTTTGACTACAATCTGAGCAGACCCTTATTAAGTCGGAGTCACCTAGTGCAG	8170 fluorescence intensity (a.u.)
GGAAAAAGTTACAATCTTGTAACCACATTGCTTGGCCATTCGGAGTCACCTAGTGCAG	8070 fluorescence intensity (a.u.)
TTCCTTGCTCTCTGGGCTATTTTCAGCCCATTTTATTCTTCGGAGTCACCTAGTGCAG	10500 fluorescence intensity (a.u.)
ACTCGGACTATTTTGGCTTCTATCATCAAATGCTATTGGCCGGAGTCACCTAGTGCAG	8090 fluorescence intensity (a.u.)
AGTTTTACACTTGTATTCCTGACCTGTTTCTTGTCTAGCACGGAGTCACCTAGTGCAG	9110 fluorescence intensity (a.u.)
CCGCGCGATCTCGCCGTCTCGTCTCTCGCCATCGCAGATACGGAGTCACCTAGTGCAG	8380 fluorescence intensity (a.u.)
TTCACGTCCACTTCACCGGAGTTGCCATTTCCAATCCCAACGGAGTCACCTAGTGCAG	10400 fluorescence intensity (a.u.)
TCACCTCCTGCATCACCAGCACCACTCTCCGCCTCCCTGGCGGAGTCACCTAGTGCAG	9420 fluorescence intensity (a.u.)
CCCTCCCGTCAGTTGACCGTTAGTTGACCGTGTATTTTCTCGGAGTCACCTAGTGCAG	12200 fluorescence intensity (a.u.)
TTTCGATAATCATCAGCATACATTTTTCCTTTTTCTGGGGCGGAGTCACCTAGTGCAG	8650 fluorescence intensity (a.u.)
ATATATGTATGTATGTGTGTGTGTATTACGTCAAAGAATACGGAGTCACCTAGTGCAG	8240 fluorescence intensity (a.u.)
TTCAGTAGTAACCCACTTGTCCCCGTTTGACCGCTTCGTCCGGAGTCACCTAGTGCAG	10800 fluorescence intensity (a.u.)
AGTCCTTGTCTATTCCGGGCTAGGGTTTTCGGTTCAAAACCGGAGTCACCTAGTGCAG	10200 fluorescence intensity (a.u.)
ATCTCGGCTGCCCAAATTCCTGAAATCAACTGTCTATCCTCGGAGTCACCTAGTGCAG	8160 fluorescence intensity (a.u.)
GCGTATTGACTGTTGAGCCCGGCCCGTATGAATCCCTTGTCGGAGTCACCTAGTGCAG	10700 fluorescence intensity (a.u.)
ATGATACAATGGCCTAACTCTGCTCTGATACCAAATGATACGGAGTCACCTAGTGCAG	8460 fluorescence intensity (a.u.)
TCAGTGAATAAATCGCTAGCCAACTCGCTCCCGGGTTTTGCGGAGTCACCTAGTGCAG	8920 fluorescence intensity (a.u.)
ATCCAAACCAATGTCCGTTAATCAGAGTTACTTACCATCACGGAGTCACCTAGTGCAG	8600 fluorescence intensity (a.u.)
ATCTTCTTCCAGTCTCCTCTTGATCTGTTCAGCAAACCCGCGGAGTCACCTAGTGCAG	8140 fluorescence intensity (a.u.)
